# The other results are listed elsewhere or left out.
# Experiments:
# Assay in all cases: glycan array binding signal (z-score within array); higher = stronger binding
# Details in all cases: glycan notation: IUPAC condensed, linker removed
# [1] = biological target: Neu5Ac(a2-3)Gal(b1-4)[Fuc(a1-3)]GlcNAc(b1-3)Gal
# How it was run: (§1)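 Glycan array binding is given as a within-array Z-score, which can be read as non-binding when negative. The arrays, 3228 of them, came from the Consortium for Functional Glycomics database and were retained only where the protein sequence was available. Z-scores were averaged across arrays of the same protein sequence at different concentrations or buffers and across linkers.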
# [2] = biological target: Neu5Ac(a2-3)Gal(b1-4)[Fuc(a1-3)]GlcNAc(b1-3)Gal(b1-4)GlcNAc
# How it was run: as §1
# [3] = biological target: Neu5Ac(a2-3)Gal(b1-4)[Fuc(a1-3)]GlcNAc(b1-3)Gal(b1-4)[Fuc(a1-3)]GlcNAc(b1-3)Gal(b1-4)[Fuc(a1-3)]GlcNAc
# How it was run: as §1
# [4] = biological target: Neu5Ac(a2-3)Gal(b1-4)[Fuc(a1-3)]GlcNAc(b1-3)GalNAc
# How it was run: as §1
# [5] = biological target: Neu5Ac(a2-3)Gal(b1-4)[Fuc(a1-3)]GlcNAc(b1-6)[Gal(b1-3)]GalNAc
# How it was run: as §1
# [6] = biological target: Neu5Ac(a2-3)Gal(b1-4)[Fuc(a1-3)]GlcNAc(b1-6)[Neu5Ac(a2-3)Gal(b1-3)]GalNAc
# How it was run: as §1
# [7] = biological target: Neu5Ac(a2-3)Gal(b1-4)[Fuc(a1-3)]GlcNAc6S
# How it was run: as §1
# [8] = biological target: Neu5Ac(a2-3)Gal6S(b1-4)GlcNAc
# How it was run: as §1
# [9] = biological target: Neu5Ac(a2-3)Gal6S(b1-4)[Fuc(a1-3)]GlcNAc
# How it was run: as §1
# Neu5Ac(a2-3)GalNAc = biological target: Neu5Ac(a2-3)GalNAc
# How it was run: as §1
# [10] = biological target: Neu5Ac(a2-3)GalNAc(b1-4)GlcNAc
# How it was run: as §1
# [11] = biological target: Neu5Ac(a2-3)[GalNAc(b1-4)]Gal(b1-4)Glc
# How it was run: as §1
# [12] = biological target: Neu5Ac(a2-3)[GalNAc(b1-4)]Gal(b1-4)GlcNAc
# How it was run: as §1
# [13] = biological target: Neu5Ac(a2-3)[GalNAc(b1-4)]Gal(b1-4)GlcNAc(b1-3)GalNAc
# How it was run: as §1
# [14] = biological target: Neu5Ac(a2-3)[Neu5Ac(a2-6)]GalNAc
# How it was run: as §1
# Neu5Ac(a2-6)Gal = biological target: Neu5Ac(a2-6)Gal
# How it was run: as §1
# [15] = biological target: Neu5Ac(a2-6)Gal(b1-3)GlcNAc(b1-3)[Gal(b1-4)GlcNAc(b1-6)]Gal(b1-4)Glc
# How it was run: as §1
# Neu5Ac(a2-6)Gal(b1-4)Glc = biological target: Neu5Ac(a2-6)Gal(b1-4)Glc
# How it was run: as §1
# [16] = biological target: Neu5Ac(a2-6)Gal(b1-4)GlcNAc
# How it was run: as §1
# [17] = biological target: Neu5Ac(a2-6)Gal(b1-4)GlcNAc(b1-2)Man
# How it was run: as §1
# [18] = biological target: Neu5Ac(a2-6)Gal(b1-4)GlcNAc(b1-2)Man(a1-3)Man(b1-4)GlcNAc(b1-4)GlcNAc
# How it was run: as §1
# [19] = biological target: Neu5Ac(a2-6)Gal(b1-4)GlcNAc(b1-2)Man(a1-3)[Gal(b1-4)GlcNAc(b1-2)Man(a1-6)]Man(b1-4)GlcNAc(b1-4)GlcNAc
# How it was run: as §1
# [20] = biological target: Neu5Ac(a2-6)Gal(b1-4)GlcNAc(b1-2)Man(a1-3)[GlcNAc(b1-2)Man(a1-6)]Man(b1-4)GlcNAc(b1-4)GlcNAc
# How it was run: as §1
# [21] = biological target: Neu5Ac(a2-6)Gal(b1-4)GlcNAc(b1-2)Man(a1-3)[GlcNAc(b1-2)Man(b1-4)GlcNAc(b1-2)Man(a1-6)]Man(b1-4)GlcNAc(b1-4)GlcNAc
# How it was run: as §1
# [22] = biological target: Neu5Ac(a2-6)Gal(b1-4)GlcNAc(b1-2)Man(a1-3)[GlcNAc(b1-4)][Neu5Ac(a2-6)Gal(b1-4)GlcNAc(b1-2)Man(a1-6)]Man(b1-4)GlcNAc(b1-4)GlcNAc
# How it was run: as §1
# [23] = biological target: Neu5Ac(a2-6)Gal(b1-4)GlcNAc(b1-2)Man(a1-3)[Man(a1-6)]Man(b1-4)GlcNAc(b1-4)GlcNAc
# How it was run: as §1
# [24] = biological target: Neu5Ac(a2-6)Gal(b1-4)GlcNAc(b1-2)Man(a1-3)[Neu5Ac(a2-3)Gal(b1-4)GlcNAc(b1-2)Man(a1-6)]Man(b1-4)GlcNAc(b1-4)GlcNAc
# How it was run: as §1
# [25] = biological target: Neu5Ac(a2-6)Gal(b1-4)GlcNAc(b1-2)Man(a1-3)[Neu5Ac(a2-6)Gal(b1-4)GlcNAc(b1-2)Man(a1-6)]Man(b1-4)GlcNAc(b1-4)GlcNAc
# How it was run: as §1
# [26] = biological target: Neu5Ac(a2-6)Gal(b1-4)GlcNAc(b1-2)Man(a1-3)[Neu5Ac(a2-6)Gal(b1-4)GlcNAc(b1-2)Man(a1-6)]Man(b1-4)GlcNAc(b1-4)[Fuc(a1-6)]GlcNAc
# How it was run: as §1
# [27] = biological target: Neu5Ac(a2-6)Gal(b1-4)GlcNAc(b1-2)Man(a1-6)Man(b1-4)GlcNAc(b1-4)GlcNAc
# How it was run: as §1
# [28] = biological target: Neu5Ac(a2-6)Gal(b1-4)GlcNAc(b1-2)Man(a1-6)[Gal(b1-4)GlcNAc(b1-2)Man(a1-3)]Man(b1-4)GlcNAc(b1-4)GlcNAc
# How it was run: as §1
# [29] = biological target: Neu5Ac(a2-6)Gal(b1-4)GlcNAc(b1-2)Man(a1-6)[GlcNAc(b1-2)Man(a1-3)]Man(b1-4)GlcNAc(b1-4)GlcNAc
# How it was run: as §1
# [30] = biological target: Neu5Ac(a2-6)Gal(b1-4)GlcNAc(b1-2)Man(a1-6)[Man(a1-3)]Man(b1-4)GlcNAc(b1-4)GlcNAc
# How it was run: as §1
# [31] = biological target: Neu5Ac(a2-6)Gal(b1-4)GlcNAc(b1-2)[Neu5Ac(a2-6)Gal(b1-4)GlcNAc(b1-4)]Man(a1-3)[GlcNAc(b1-4)][Neu5Ac(a2-6)Gal(b1-4)GlcNAc(b1-2)[Neu5Ac(a2-6)Gal(b1-4)GlcNAc(b1-6)]Man(a1-6)]Man(b1-4)GlcNAc(b1-4)GlcNAc
# How it was run: as §1
# [32] = biological target: Neu5Ac(a2-6)Gal(b1-4)GlcNAc(b1-2)[Neu5Ac(a2-6)Gal(b1-4)GlcNAc(b1-4)]Man(a1-3)[GlcNAc(b1-4)][Neu5Ac(a2-6)Gal(b1-4)GlcNAc(b1-4)Man(a1-6)]Man(b1-4)GlcNAc(b1-4)GlcNAc
# How it was run: as §1
# [33] = biological target: Neu5Ac(a2-6)Gal(b1-4)GlcNAc(b1-2)[Neu5Ac(a2-6)Gal(b1-4)GlcNAc(b1-6)]Man(a1-6)[Neu5Ac(a2-6)Gal(b1-4)GlcNAc(b1-2)Man(a1-3)][GlcNAc(b1-4)]Man(b1-4)GlcNAc(b1-4)GlcNAc
# How it was run: as §1
# [34] = biological target: Neu5Ac(a2-6)Gal(b1-4)GlcNAc(b1-3)Gal(b1-3)GlcNAc
# How it was run: as §1
# [35] = biological target: Neu5Ac(a2-6)Gal(b1-4)GlcNAc(b1-3)Gal(b1-4)GlcNAc
# How it was run: as §1
# [36] = biological target: Neu5Ac(a2-6)Gal(b1-4)GlcNAc(b1-3)Gal(b1-4)GlcNAc(b1-2)Man(a1-3)[Neu5Ac(a2-6)Gal(b1-4)GlcNAc(b1-3)Gal(b1-4)GlcNAc(b1-2)Man(a1-6)]GalNAc
# How it was run: as §1
# [37] = biological target: Neu5Ac(a2-6)Gal(b1-4)GlcNAc(b1-3)Gal(b1-4)GlcNAc(b1-3)Gal(b1-4)GlcNAc
# How it was run: as §1
# [38] = biological target: Neu5Ac(a2-6)Gal(b1-4)GlcNAc(b1-3)Gal(b1-4)GlcNAc(b1-3)Gal(b1-4)GlcNAc(b1-2)Man(a1-3)[Neu5Ac(a2-6)Gal(b1-4)GlcNAc(b1-3)Gal(b1-4)GlcNAc(b1-3)Gal(b1-4)GlcNAc(b1-2)Man(a1-6)]GalNAc
# How it was run: as §1
# [39] = biological target: Neu5Ac(a2-6)Gal(b1-4)GlcNAc(b1-3)Gal(b1-4)GlcNAc(b1-3)GalNAc
# How it was run: as §1
# [40] = biological target: Neu5Ac(a2-6)Gal(b1-4)GlcNAc(b1-3)Gal(b1-4)GlcNAc(b1-3)[Neu5Ac(a2-6)Gal(b1-4)GlcNAc(b1-3)Gal(b1-4)GlcNAc(b1-6)]GalNAc
# How it was run: as §1
binder,measurement,setting,value
"Gal 10 (Homo sapiens), Q05315 (protein) MSLLPVPYTEAASLSTGSTVTIKGRPLVCFLNEPYLQVDFHTEMKEESDIVFHFQVCFGRRVVMNSREYGAWKQQVESKNMPFQDGQEFELSISVLPDKYQVMVNGQSSYTFDHRIKPEAVKMVQVWRDISLTKFNVSYLKR",glycan array binding signal (z-score),[1],-0.034
same,glycan array binding signal (z-score),[2],-0.167
same,glycan array binding signal (z-score),[3],0.844
same,glycan array binding signal (z-score),[4],1.77
same,glycan array binding signal (z-score),[5],1.08
same,glycan array binding signal (z-score),[6],-0.065
same,glycan array binding signal (z-score),[7],-0.32
same,glycan array binding signal (z-score),[8],-0.415
same,glycan array binding signal (z-score),[9],-0.196
same,glycan array binding signal (z-score),Neu5Ac(a2-3)GalNAc,-0.775
same,glycan array binding signal (z-score),[10],0.108
same,glycan array binding signal (z-score),[11],-0.169
same,glycan array binding signal (z-score),[12],-0.148
same,glycan array binding signal (z-score),[13],0.044
same,glycan array binding signal (z-score),[14],0.218
same,glycan array binding signal (z-score),Neu5Ac(a2-6)Gal,-0.001
same,glycan array binding signal (z-score),[15],-0.319
same,glycan array binding signal (z-score),Neu5Ac(a2-6)Gal(b1-4)Glc,-0.381
same,glycan array binding signal (z-score),[16],-0.362
same,glycan array binding signal (z-score),[17],-0.725
same,glycan array binding signal (z-score),[18],-0.164
same,glycan array binding signal (z-score),[19],0.089
same,glycan array binding signal (z-score),[20],-0.609
same,glycan array binding signal (z-score),[21],0.105
same,glycan array binding signal (z-score),[22],-0.479
same,glycan array binding signal (z-score),[23],-0.25
same,glycan array binding signal (z-score),[24],-0.596
same,glycan array binding signal (z-score),[25],0.509
same,glycan array binding signal (z-score),[26],-0.156
same,glycan array binding signal (z-score),[27],-0.652
same,glycan array binding signal (z-score),[28],0.567
same,glycan array binding signal (z-score),[29],0.248
same,glycan array binding signal (z-score),[30],-0.308
same,glycan array binding signal (z-score),[31],0.323
same,glycan array binding signal (z-score),[32],2.9
same,glycan array binding signal (z-score),[33],-0.595
same,glycan array binding signal (z-score),[34],-0.312
same,glycan array binding signal (z-score),[35],0.008
same,glycan array binding signal (z-score),[36],0.336
same,glycan array binding signal (z-score),[37],-0.967
same,glycan array binding signal (z-score),[38],3.41
same,glycan array binding signal (z-score),[39],0.199
same,glycan array binding signal (z-score),[40],-0.52

# 2 records picked at random from those above:
binder,measurement,setting,value
"Gal 10 (Homo sapiens), Q05315 (protein) MSLLPVPYTEAASLSTGSTVTIKGRPLVCFLNEPYLQVDFHTEMKEESDIVFHFQVCFGRRVVMNSREYGAWKQQVESKNMPFQDGQEFELSISVLPDKYQVMVNGQSSYTFDHRIKPEAVKMVQVWRDISLTKFNVSYLKR",glycan array binding signal (z-score),[11],-0.169
same,glycan array binding signal (z-score),[36],0.336

# Reference: the supplement of paper PMC8728848
